From PMC9664729

Chains of the proteins cited; added tags and fusions are not shown.
UniProt P19474: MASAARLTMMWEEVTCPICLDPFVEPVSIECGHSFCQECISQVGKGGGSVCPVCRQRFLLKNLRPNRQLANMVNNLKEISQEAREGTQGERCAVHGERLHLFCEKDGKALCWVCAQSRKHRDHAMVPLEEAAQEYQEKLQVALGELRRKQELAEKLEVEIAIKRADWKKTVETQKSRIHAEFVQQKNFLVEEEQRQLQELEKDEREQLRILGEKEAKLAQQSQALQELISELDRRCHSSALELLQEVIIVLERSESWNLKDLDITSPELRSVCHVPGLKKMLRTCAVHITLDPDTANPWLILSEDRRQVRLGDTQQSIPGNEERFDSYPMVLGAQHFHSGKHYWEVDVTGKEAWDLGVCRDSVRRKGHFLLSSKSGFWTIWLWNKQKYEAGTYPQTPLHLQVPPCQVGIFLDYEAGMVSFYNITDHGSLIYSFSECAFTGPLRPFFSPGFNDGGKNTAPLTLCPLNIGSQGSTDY

Biological target: T1, Elongin A (ELOA), Flag-tagged (UniProt Q14241)
T1 sequence: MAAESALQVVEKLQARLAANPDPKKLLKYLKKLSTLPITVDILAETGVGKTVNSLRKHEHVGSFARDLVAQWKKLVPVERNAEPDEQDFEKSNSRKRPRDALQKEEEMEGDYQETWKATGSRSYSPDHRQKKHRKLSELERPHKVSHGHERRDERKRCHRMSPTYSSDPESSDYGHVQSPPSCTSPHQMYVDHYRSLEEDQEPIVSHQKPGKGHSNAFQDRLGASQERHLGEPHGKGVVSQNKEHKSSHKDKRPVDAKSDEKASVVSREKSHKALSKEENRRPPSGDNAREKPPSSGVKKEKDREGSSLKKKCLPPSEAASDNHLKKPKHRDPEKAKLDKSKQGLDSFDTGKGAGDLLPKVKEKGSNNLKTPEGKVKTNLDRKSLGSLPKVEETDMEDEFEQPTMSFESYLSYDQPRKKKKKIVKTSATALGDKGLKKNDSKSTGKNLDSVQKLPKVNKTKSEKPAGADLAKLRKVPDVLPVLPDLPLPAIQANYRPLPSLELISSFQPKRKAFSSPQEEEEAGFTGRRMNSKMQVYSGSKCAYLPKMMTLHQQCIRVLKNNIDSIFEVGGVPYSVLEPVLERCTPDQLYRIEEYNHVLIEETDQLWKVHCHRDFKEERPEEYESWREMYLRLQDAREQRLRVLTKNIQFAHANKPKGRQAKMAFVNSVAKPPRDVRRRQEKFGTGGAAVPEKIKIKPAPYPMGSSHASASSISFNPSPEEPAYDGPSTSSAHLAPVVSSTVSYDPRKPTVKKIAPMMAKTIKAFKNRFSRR
Experiment: affinity purification with mass spectrometry; ELOA-Flag immunoprecipitation, SDS-PAGE with silver staining, mass spectrometry; screen for E3 ligases

tripartite motif containing 21 (Trim21), endogenous (from UniProt P19474 1-475)
binding: binds

Results are given in words; binding and its absence hold for the method and conditions named. Binding seen in cells or lysates may run through a third protein. A yes stands for co-enrichment or nearness to the bait. Other partners may have been found. Tags and fused reporters may be left off the sequences shown.
